Results: the supplement of paper PMC7666118
The list shows a part of the results.

Sequences of proteins named here, by UniProt entry; tags and fusion partners are left off. A change or cut given only in a name is not applied to a line headed by its entry.
UniProt P09132: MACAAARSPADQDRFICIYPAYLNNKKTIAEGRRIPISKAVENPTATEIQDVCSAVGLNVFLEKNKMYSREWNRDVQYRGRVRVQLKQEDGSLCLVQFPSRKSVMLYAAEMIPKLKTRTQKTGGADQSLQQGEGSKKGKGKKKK
UniProt O75940: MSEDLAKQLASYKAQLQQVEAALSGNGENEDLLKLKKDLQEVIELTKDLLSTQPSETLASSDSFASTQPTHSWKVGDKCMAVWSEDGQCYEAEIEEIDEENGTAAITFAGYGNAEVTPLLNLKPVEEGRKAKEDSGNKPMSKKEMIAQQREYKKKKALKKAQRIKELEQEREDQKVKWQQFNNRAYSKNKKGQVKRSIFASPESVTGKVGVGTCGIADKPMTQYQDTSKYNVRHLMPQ
UniProt Q8WVM7: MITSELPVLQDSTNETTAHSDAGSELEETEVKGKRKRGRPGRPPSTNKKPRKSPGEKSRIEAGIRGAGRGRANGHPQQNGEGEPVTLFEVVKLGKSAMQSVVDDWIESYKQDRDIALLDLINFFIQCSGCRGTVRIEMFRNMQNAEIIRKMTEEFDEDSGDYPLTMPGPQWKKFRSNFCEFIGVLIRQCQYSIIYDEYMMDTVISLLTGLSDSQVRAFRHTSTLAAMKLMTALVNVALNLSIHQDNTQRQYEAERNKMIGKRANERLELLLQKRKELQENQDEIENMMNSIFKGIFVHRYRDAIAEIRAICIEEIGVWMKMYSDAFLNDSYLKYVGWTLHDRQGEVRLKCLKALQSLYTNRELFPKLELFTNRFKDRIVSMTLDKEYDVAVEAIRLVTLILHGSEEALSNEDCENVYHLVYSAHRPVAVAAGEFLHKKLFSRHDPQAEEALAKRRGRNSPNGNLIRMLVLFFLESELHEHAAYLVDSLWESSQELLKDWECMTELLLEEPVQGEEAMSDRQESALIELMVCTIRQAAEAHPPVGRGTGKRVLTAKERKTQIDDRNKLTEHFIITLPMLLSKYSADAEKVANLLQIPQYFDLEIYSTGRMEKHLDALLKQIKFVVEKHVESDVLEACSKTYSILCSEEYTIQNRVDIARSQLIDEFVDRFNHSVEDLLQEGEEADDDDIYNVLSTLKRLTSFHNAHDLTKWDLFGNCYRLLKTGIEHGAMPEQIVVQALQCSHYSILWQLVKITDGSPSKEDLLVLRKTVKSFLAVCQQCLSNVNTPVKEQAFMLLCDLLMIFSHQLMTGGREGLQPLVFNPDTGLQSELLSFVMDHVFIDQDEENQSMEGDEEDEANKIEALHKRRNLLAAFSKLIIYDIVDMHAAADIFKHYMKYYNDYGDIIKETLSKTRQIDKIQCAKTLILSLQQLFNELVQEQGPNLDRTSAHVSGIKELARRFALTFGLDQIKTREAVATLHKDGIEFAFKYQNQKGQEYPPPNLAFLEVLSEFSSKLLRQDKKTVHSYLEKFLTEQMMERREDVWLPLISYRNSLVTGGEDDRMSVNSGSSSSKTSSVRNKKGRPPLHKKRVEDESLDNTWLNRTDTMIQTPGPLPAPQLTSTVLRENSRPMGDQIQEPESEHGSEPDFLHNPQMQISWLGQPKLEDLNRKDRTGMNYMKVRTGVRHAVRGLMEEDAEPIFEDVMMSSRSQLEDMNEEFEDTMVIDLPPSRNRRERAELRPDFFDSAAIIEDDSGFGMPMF
UniProt P16949: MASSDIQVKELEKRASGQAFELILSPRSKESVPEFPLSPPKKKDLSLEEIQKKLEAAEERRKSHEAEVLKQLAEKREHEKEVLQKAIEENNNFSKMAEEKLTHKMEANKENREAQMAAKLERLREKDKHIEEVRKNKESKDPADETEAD
UniProt Q5SQN1: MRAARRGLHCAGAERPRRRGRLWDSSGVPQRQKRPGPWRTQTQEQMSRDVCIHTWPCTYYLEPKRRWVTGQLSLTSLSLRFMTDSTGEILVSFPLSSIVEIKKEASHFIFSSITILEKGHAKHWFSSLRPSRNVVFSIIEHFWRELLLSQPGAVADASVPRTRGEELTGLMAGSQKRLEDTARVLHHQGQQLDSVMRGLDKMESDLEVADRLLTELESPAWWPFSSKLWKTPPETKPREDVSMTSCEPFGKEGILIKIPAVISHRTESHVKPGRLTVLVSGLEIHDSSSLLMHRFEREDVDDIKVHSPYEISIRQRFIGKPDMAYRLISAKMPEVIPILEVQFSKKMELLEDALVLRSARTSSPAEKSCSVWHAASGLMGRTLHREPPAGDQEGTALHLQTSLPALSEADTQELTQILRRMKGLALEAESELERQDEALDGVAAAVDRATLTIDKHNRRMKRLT
UniProt P51571: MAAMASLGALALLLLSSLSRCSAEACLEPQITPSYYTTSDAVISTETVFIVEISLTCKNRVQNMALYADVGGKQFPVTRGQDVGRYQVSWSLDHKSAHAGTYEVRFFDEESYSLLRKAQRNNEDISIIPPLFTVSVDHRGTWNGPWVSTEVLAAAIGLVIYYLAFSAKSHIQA
UniProt P27105: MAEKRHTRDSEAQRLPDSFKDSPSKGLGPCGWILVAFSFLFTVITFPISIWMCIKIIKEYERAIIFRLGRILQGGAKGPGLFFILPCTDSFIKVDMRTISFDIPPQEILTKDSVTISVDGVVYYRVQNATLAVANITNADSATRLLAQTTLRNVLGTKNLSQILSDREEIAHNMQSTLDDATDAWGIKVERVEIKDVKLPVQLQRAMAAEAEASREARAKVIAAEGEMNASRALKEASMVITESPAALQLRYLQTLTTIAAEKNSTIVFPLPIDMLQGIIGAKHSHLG
UniProt Q8TCT7: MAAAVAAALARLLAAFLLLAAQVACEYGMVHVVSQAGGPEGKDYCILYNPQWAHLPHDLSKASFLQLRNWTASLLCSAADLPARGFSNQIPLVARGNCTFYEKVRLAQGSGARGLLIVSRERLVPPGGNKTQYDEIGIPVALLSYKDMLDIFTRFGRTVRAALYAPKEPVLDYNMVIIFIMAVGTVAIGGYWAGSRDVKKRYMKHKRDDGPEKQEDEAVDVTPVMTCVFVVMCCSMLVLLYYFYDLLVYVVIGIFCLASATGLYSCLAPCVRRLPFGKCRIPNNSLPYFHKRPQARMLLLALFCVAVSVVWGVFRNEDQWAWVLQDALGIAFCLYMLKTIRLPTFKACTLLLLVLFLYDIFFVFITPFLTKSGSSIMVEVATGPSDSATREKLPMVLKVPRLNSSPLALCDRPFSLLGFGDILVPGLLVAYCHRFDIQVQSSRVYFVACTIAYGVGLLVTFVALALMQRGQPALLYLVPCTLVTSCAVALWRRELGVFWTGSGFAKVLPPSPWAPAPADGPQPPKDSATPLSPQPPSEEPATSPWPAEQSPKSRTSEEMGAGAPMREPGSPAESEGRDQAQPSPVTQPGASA
UniProt Q8IYB5: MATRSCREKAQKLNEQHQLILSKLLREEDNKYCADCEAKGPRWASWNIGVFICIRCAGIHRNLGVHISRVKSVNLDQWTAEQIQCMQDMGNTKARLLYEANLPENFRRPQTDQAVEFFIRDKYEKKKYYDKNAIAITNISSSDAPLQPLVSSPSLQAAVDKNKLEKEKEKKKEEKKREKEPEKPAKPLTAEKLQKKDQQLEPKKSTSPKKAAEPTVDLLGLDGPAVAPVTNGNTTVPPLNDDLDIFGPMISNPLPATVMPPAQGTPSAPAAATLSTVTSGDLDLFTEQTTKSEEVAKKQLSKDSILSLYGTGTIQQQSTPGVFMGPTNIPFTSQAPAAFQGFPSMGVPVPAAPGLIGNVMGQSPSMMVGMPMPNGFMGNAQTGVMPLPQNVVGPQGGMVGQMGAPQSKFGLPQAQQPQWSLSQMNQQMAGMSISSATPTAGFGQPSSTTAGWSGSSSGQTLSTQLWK
UniProt O00506, whole entry, looked up: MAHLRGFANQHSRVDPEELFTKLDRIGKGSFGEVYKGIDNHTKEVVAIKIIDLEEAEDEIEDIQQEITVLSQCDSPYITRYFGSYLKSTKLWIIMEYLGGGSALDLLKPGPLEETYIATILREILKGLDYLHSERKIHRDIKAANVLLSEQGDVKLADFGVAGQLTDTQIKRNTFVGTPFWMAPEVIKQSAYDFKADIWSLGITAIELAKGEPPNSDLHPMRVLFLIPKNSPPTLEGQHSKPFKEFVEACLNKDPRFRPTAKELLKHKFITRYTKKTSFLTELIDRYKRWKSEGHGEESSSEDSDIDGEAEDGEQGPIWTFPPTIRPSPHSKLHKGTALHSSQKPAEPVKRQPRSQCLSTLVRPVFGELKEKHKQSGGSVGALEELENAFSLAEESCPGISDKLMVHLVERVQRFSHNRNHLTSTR
UniProt Q5MIZ7: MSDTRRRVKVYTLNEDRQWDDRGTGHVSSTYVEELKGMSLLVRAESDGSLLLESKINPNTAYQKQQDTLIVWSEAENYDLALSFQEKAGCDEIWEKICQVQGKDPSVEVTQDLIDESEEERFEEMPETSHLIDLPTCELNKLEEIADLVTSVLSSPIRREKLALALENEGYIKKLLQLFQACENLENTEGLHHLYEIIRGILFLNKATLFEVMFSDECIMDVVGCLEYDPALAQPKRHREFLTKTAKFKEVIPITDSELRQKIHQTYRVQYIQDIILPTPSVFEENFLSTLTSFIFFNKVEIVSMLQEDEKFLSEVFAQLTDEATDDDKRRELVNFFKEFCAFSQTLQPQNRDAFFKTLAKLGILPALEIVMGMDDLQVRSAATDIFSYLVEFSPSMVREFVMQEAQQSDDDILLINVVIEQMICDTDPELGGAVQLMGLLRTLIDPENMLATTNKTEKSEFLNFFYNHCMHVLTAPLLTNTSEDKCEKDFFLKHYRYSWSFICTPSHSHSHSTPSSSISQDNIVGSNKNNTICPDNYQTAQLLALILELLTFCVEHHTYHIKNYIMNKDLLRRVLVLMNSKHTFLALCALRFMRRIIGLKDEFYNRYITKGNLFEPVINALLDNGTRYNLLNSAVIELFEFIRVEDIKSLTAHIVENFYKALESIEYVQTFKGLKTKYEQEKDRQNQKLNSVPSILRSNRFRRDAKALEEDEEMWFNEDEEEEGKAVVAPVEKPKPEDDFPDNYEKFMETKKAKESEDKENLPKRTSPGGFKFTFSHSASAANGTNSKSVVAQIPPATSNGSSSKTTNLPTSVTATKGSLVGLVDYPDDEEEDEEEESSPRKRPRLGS
UniProt Q12846: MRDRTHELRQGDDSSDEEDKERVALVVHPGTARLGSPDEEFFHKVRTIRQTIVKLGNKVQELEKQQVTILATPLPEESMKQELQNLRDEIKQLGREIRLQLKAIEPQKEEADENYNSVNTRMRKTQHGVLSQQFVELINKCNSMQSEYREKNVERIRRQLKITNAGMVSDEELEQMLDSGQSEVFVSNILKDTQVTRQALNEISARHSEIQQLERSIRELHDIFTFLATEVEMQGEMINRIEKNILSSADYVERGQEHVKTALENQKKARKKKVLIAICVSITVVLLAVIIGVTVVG
UniProt Q9UMY4: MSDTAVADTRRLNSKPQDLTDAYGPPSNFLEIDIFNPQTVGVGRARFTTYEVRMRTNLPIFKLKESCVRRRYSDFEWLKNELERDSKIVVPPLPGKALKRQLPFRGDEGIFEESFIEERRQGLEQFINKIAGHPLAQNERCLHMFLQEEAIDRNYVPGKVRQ
UniProt P42226: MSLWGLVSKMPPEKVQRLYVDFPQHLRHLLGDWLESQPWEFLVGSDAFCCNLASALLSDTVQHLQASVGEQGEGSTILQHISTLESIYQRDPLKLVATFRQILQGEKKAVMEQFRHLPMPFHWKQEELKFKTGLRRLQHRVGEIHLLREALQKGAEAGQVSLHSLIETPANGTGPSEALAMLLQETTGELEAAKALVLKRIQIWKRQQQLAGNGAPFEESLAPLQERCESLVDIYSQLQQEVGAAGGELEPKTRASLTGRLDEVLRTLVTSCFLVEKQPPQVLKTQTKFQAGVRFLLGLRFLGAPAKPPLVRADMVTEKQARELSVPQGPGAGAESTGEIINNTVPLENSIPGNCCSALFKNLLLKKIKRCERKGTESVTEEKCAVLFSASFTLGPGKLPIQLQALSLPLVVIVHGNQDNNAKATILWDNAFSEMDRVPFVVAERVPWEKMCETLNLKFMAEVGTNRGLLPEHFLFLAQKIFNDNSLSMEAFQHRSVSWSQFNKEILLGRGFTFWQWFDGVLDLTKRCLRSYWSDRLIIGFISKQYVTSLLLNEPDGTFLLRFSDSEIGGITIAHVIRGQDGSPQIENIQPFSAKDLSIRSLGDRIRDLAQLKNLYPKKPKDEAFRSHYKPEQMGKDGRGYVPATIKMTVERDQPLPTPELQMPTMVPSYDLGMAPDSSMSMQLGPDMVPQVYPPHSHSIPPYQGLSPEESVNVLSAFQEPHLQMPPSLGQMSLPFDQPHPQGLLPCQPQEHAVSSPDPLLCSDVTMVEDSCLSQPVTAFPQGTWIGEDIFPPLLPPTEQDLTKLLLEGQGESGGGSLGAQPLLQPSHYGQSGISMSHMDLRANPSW
UniProt P10124: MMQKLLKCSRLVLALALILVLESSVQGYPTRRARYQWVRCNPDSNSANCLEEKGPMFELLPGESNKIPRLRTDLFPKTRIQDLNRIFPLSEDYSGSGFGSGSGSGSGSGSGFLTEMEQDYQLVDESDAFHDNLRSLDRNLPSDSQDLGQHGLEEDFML

compound: COc1ccc(Cn2ccc3ccc(C(=O)NO)cc32)cc1; assay: dose-dependent thermal stabilisation call (2D-TPP, DLPTP, 10% FDR) (binary (1 = stabilised)); higher = stabilised by the compound; conditions: system: HL-60 intact cells; concentration range 0.04-10 µM

| Target | dose-dependent thermal stabilisation call |
| --- | --- |
| SMYD2 (UniProt Q9NRG4) | inactive: 0 |
| SRBD1 (UniProt Q8N5C6) | inactive: 0 |
| SMC4 (UniProt Q9NTJ3) | inactive: 0 |
| SQSTM1 (UniProt Q13501) | inactive: 0 |
| SPC24 (UniProt Q8NBT2) | inactive: 0 |
| SRP19 (UniProt P09132) | inactive: 0 |
| SMNDC1 (UniProt O75940) | inactive: 0 |
| SMCR7L (UniProt Q9NQG6) | inactive: 0 |
| STAG1 (UniProt Q8WVM7) | inactive: 0 |
| SNX9 (UniProt Q9Y5X1) | inactive: 0 |
| SNX14 (UniProt Q9Y5W7) | inactive: 0 |
| STAMBPL1 (UniProt Q96FJ0) | inactive: 0 |
| STMN1 (UniProt P16949) | inactive: 0 |
| SNAP47 (UniProt Q5SQN1) | inactive: 0 |
| SSR4 (UniProt P51571) | inactive: 0 |
| STOM (UniProt P27105) | inactive: 0 |
| SPPL2B (UniProt Q8TCT7) | inactive: 0 |
| SYNGR2 (UniProt O43760) | inactive: 0 |
| STX6 (UniProt O43752) | inactive: 0 |

2 records drawn at random from those above:

| Target | dose-dependent thermal stabilisation call |
| --- | --- |
| SSR4 (UniProt P51571) | inactive: 0 |
| SMYD2 (UniProt Q9NRG4) | inactive: 0 |

(cont.)

| Target | dose-dependent thermal stabilisation call |
| --- | --- |
| SORL1 (UniProt Q92673) | inactive: 0 |
| SUPT3H (UniProt O75486) | inactive: 0 |
| SRP54 (UniProt P61011) | inactive: 0 |
| SMG5 (UniProt Q9UPR3) | inactive: 0 |
| SPG11 (UniProt Q96JI7) | inactive: 0 |
| SR140 (UniProt O15042) | inactive: 0 |
| SMARCA5 (UniProt O60264) | inactive: 0 |
| STK11IP (UniProt Q8N1F8) | inactive: 0 |
| SON (UniProt P18583) | inactive: 0 |
| SMAP1 (UniProt Q8IYB5) | inactive: 0 |
| SOD1 (UniProt P00441) | inactive: 0 |
| STK25 (UniProt O00506) | inactive: 0 |
| SMEK2 (UniProt Q5MIZ7) | inactive: 0 |
| STX4 (UniProt Q12846) | inactive: 0 |
| SNX12 (UniProt Q9UMY4) | inactive: 0 |
| STAT6 (UniProt P42226) | inactive: 0 |
| SRGN (UniProt P10124) | active: 1 |
| SP3 (UniProt Q02447) | inactive: 0 |
